Assay results reported in PubChem BioAssay AID248 (DTP/NCI, 2004).
The list shows only some results of the screen, not a fair sample: it is rich in T/C values a quarter to a half above the control, in often repeated tests (any T/C) and in doses without a T/C. Other doses and runs of a compound stand elsewhere. T/C gives the treated animals as a percentage of the vehicle group. Some doses have a count of surviving animals in place of a T/C: the source holds a T/C of zero for them, seemingly a mark for toxic or unscored doses. Some doses without a T/C left all or most animals alive at the check, yet need not have been tolerated: the source hardly ever lists a survival T/C far under the control, and the zero likely stands for such cases as well. Survivors were counted at the toxicity check, usually on the fifth day, unless a day is given; later deaths do not show. Schedule codes are those of the source, read here as Q, the interval in days (D) or hours (H), X, the number of doses. Some schedules carry Z or #; the key to these is not given. Some entries were tested several times; their values stand side by side, smallest first. For survival time, this PubChem deposit counts one and a half times the control or more as active, and values a quarter to a half above the control carry no call in these data; other NCI protocols may use other cut-offs. Some T/C values carry the count of animals alive at the toxicity check (mostly the fifth day); without a count, all were alive then.

Tested on: L1210 leukemia ip in BDF1 mice, survival T/C
Test: NCI In Vivo Anticancer Drug Screen. Data for tumor model L1210 Leukemia (intraperitoneal) in B6D2F1 (BDF1) mice
Details: T/C endpoint: mean survival time, higher T/C = longer survival
[1] = dose: 10.0 mg/kg/injection, schedule: Q01DX009 (ip), vehicle: saline
[2] = dose: 50.0 mg/kg/injection, schedule: Q01DX009 (ip), vehicle: saline
[3] = dose: 200.0 mg/kg/injection, schedule: Q04DX003 (ip), vehicle: saline with Tween-80
[4] = dose: 400.0 mg/kg/injection, schedule: Q04DX003 (ip), vehicle: saline with Tween-80
[5] = dose: 300.0 mg/kg/injection, schedule: Q01DX001 (ip), vehicle: saline
[6] = dose: 200.0 mg/kg/injection, schedule: Q04DX002 (ip), vehicle: saline with Tween-80
[7] = dose: 400.0 mg/kg/injection, schedule: Q04DX002 (ip), vehicle: saline with Tween-80
[8] = dose: 400.0 mg/kg/injection, schedule: Q01DX001 (ip), vehicle: other
[9] = dose: 100.0 mg/kg/injection, schedule: Q04DX002 (ip), vehicle: Klucel (hydroxypropylcellulose) (HPC)
[10] = dose: 400.0 mg/kg/injection, schedule: Q04DX003 (ip), vehicle: saline
[11] = dose: 200.0 mg/kg/injection, schedule: Q04DX002 (ip), vehicle: Klucel (hydroxypropylcellulose) (HPC)
[12] = dose: 400.0 mg/kg/injection, schedule: Q01DX009 (ip), vehicle: Klucel (hydroxypropylcellulose) (HPC)
[13] = dose: 200.0 mg/kg/injection, schedule: Q01DX009 (ip), vehicle: saline with Tween-80
[14] = dose: 400.0 mg/kg/injection, schedule: Q01DX009 (ip), vehicle: saline with Tween-80
[15] = dose: 200.0 mg/kg/injection, schedule: Q01DX001 (ip), vehicle: saline

With `COc1cc(Cc2nccc3cc(OC)c(OC)cc23)c(C(C)=O)cc1OC` the T/C [1] was 127 % of control, the T/C (dose: 10.0 mg/kg/injection, schedule: Q01DX Z (ip), vehicle: saline) was 126 % of control and the T/C (dose: 15.0 mg/kg/injection, schedule: Q01DX009 (ip), vehicle: saline) was 126 % of control. The T/C (dose: 15.0 mg/kg/injection, schedule: Q01DX Z (ip), vehicle: saline) was 125 % of control, the T/C (dose: 23.0 mg/kg/injection, schedule: Q01DX009 (ip), vehicle: saline) was 136 % of control and the T/C (dose: 23.0 mg/kg/injection, schedule: Q01DX Z (ip), vehicle: saline) was 134 % of control. For the same compound, the T/C (dose: 35.0 mg/kg/injection, schedule: Q01DX Z (ip), vehicle: saline) was 130 [5 of 6 alive] and 134 % of control, the survivor count [2] was 4 of 7 and the T/C (dose: 50.0 mg/kg/injection, schedule: Q01DX Z (ip), vehicle: saline) was 129 % of control. The survivor count (dose: 75.0 mg/kg/injection, schedule: Q01DX009 (ip), vehicle: saline) was 6 of 7, the survivor count (dose: 110.0 mg/kg/injection, schedule: Q01DX Z (ip), vehicle: saline) was 2 of 6 and 6 of 6 and the survivor count (dose: 165.0 mg/kg/injection, schedule: Q01DX Z (ip), vehicle: saline) was 0 of 6. For the same compound, the survivor count (dose: 250.0 mg/kg/injection, schedule: Q01DX Z (ip), vehicle: saline) was 0 of 6 and the survivor count (dose: 375.0 mg/kg/injection, schedule: Q01DX Z (ip), vehicle: saline) was 0 of 6.
`CC[N+](C)(CC)/N=C(\C)c1ccccc1` was tested, and the survivor count [3] was 0 of 1 and the survivor count [4] was 0 of 6.
In the case of `CC/C=C(\C)C1(CC)C(=O)N=C(N)NC1=O` (centres undefined), the survivor count [5] is reported as 1 of 6.
With `COc1ccc(Cl)cc1NC(=O)Oc1ccc2ccccc2c1` the T/C (dose: 100.0 mg/kg/injection, schedule: Q04DX002 (ip), vehicle: saline with Tween-80) was 93, 102, 103, 104 % of control, the T/C [6] was 95, 97, 100 % of control and the survivor count [6] was 3 of 3. For the same compound, the T/C [7] was 87, 93, 97, 100 % of control.
In the case of `CN(CCO)C1CCCCCCC1`, the survivor count (dose: 200.0 mg/kg/injection, schedule: Q01DX001 (ip), vehicle: acetone) is reported as 1 of 6 and the survivor count (dose: 400.0 mg/kg/injection, schedule: Q01DX001 (ip), vehicle: acetone) is reported as 0 of 6.
In the case of `COc1ccc(/C=N\NC(=O)CCCC(=O)N/N=C/c2ccc(OC)cc2)cc1`, the survivor count [8] is reported as 4 of 4.
For `O=C(Cc1ccccc1)Nc1ccc(Nc2ccccc2)cc1`, the survivor count [9] was 3 of 3.
`COc1cc2c(cc1OC)[C@H]1CNC[C@H]1[C@@H](c1ccccc1)C2` was tested, and the survivor count [10] was 0 of 6.
With `O=C1C(SCCO)=C(SCCO)C(=O)c2[nH]cnc21` the survivor count (dose: 50.0 mg/kg/injection, schedule: Q01DX001 (ip), vehicle: carboxymethylcellulose (CMC)) was 0 of 4, the survivor count (dose: 80.0 mg/kg/injection, schedule: Q01DX001 (ip), vehicle: carboxymethylcellulose (CMC)) was 2 of 4 and the survivor count (dose: 100.0 mg/kg/injection, schedule: Q01DX001 (ip), vehicle: carboxymethylcellulose (CMC)) was 0 of 4. For the same compound, the survivor count (dose: 200.0 mg/kg/injection, schedule: Q01DX001 (ip), vehicle: carboxymethylcellulose (CMC)) was 0 of 4 and the survivor count (dose: 400.0 mg/kg/injection, schedule: Q01DX001 (ip), vehicle: carboxymethylcellulose (CMC)) was 0 of 4.
With `NC(N)=NC(N)=Nc1cc(C(F)(F)F)ccc1Cl` the survivor count [9] was 0 of 3, the survivor count [11] was 0 of 3 and the survivor count (dose: 400.0 mg/kg/injection, schedule: Q04DX002 (ip), vehicle: Klucel (hydroxypropylcellulose) (HPC)) was 0 of 3.
With `O=C(O)c1cccc([N+](=O)[O-])c1` the survivor count [11] was 3 of 3.
With `CC(=O)N1CCn2nccc21` the T/C (dose: 400.0 mg/kg/injection, schedule: Q01DX009 (ip), vehicle: water) was 134 and 136 % of control.
In the case of `CCN1CCC(CCOC)(CN2c3ccccc3Sc3ccccc32)C1` (centres undefined), the survivor count (dose: 100.0 mg/kg/injection, schedule: Q04DX003 (ip), vehicle: saline) is reported as 2 of 6, the survivor count (dose: 200.0 mg/kg/injection, schedule: Q04DX003 (ip), vehicle: saline) is reported as 2 of 6 and the survivor count [10] is reported as 0 of 6.
For `C[NH-].C[NH-].C[NH-].C[NH-].[Cl][Rh][Cl]`, the survivor count (dose: 200.0 mg/kg/injection, schedule: Q01DX009 (ip), vehicle: Klucel (hydroxypropylcellulose) (HPC)) was 5 of 6 and the survivor count [12] was 0 of 6.
For `c1ccc2c(c1)ccc1cc3cccc[n+]3cc12`, the survivor count (dose: 2.5 mg/kg/injection, schedule: Q01DX009 (ip), vehicle: saline) was 3 of 6, the survivor count (dose: 5.0 mg/kg/injection, schedule: Q01DX009 (ip), vehicle: saline) was 0 of 6 and 6 of 6 and the survivor count [1] was 4 of 6. For the same compound, the survivor count (dose: 20.0 mg/kg/injection, schedule: Q01DX009 (ip), vehicle: saline) was 0 of 6 and the survivor count (dose: 20.0 mg/kg/injection, schedule: Q04DX003 (ip), vehicle: saline) was 5 of 6.
In the case of `O=C(CCN1CCCC1)c1ccc2ccccc2c1`, the survivor count [6] is reported as 0 of 3 and the survivor count [7] is reported as 0 of 3.
With `CC(=O)OC1C=CC(=O)OC1C1OC1C` (centres undefined) the survivor count (dose: 45.0 mg/kg/injection, schedule: Q01DX Z (ip), vehicle: saline) was 2 of 6.
In the case of `CCCCCCCC(O)CCC(=O)NN` (centres undefined), the survivor count (dose: 100.0 mg/kg/injection, schedule: Q01DX009 (ip), vehicle: saline with Tween-80) is reported as 5 of 6, the survivor count [13] is reported as 2 of 6 and the survivor count [14] is reported as 1 of 6.
With `CCOc1cc(OCC)c(C=O)c(OCC)c1` the survivor count (dose: 100.0 mg/kg/injection, schedule: Q01DX001 (ip), vehicle: saline) was 6 of 6.
`CN(N=O)C(=O)Nc1cccc2cccnc12` was tested, and the survivor count (dose: 50.0 mg/kg/injection, schedule: Q01DX Z (ip), vehicle: carboxymethylcellulose (CMC)) was 4 of 6 and the survivor count (dose: 100.0 mg/kg/injection, schedule: Q01DX Z (ip), vehicle: carboxymethylcellulose (CMC)) was 5 of 6.
In the case of `CCOC(=O)Cc1nnn(C)n1`, the survivor count [10] is reported as 3 of 3.
For `O=C1C=C(N2CCOCC2)c2cccc3cccc1c23`, the survivor count [12] was 1 of 5.
In the case of `COc1ccc(COC(=O)Nc2ccccc2Cl)cc1`, the survivor count [11] is reported as 3 of 3.
With `C=C1C(=O)O[C@H]2C[C@@H](C)[C@@H]3CC(=O)OC[C@@]3(C)CC12` (some centres undefined) the survivor count [3] was 3 of 6 and the survivor count [4] was 0 of 6.
For `O=C1C=CC(=O)C2C3CC(C4OC34)C12` (centres undefined), the survivor count [13] was 6 of 6 and the survivor count [14] was 6 of 6.
In the case of `CN1C(=O)C(Br)C(Br)c2ccccc21` (centres undefined), the survivor count [8] is reported as 1 of 4.
For `CCCNCC1OC(OC)C2OC(C)(C)OC12` (centres undefined), the survivor count [2] was 6 of 6.
In the case of `N\C([S-])=N/N=C\C(=N/N=C(\N)[S-])C(O)C(O)C(O)CO.[Pd+2]` (centres undefined), the survivor count [10] is reported as 5 of 6.
`O=C1CCCC(=O)NNC(=O)Nc2ccc(cc2)-c2ccc(cc2)NC(=O)NN1` was tested, and the survivor count [15] was 4 of 4.
For `COc1ccc(C=NC(C)(C)CO)c(OC)c1`, the survivor count [5] was 3 of 6.
`N#CC(C#N)=NNc1ccccc1` was tested, and the survivor count (dose: 50.0 mg/kg/injection, schedule: Q04DX003 (ip), vehicle: Klucel (hydroxypropylcellulose) (HPC)) was 0 of 6, the survivor count (dose: 100.0 mg/kg/injection, schedule: Q04DX003 (ip), vehicle: Klucel (hydroxypropylcellulose) (HPC)) was 0 of 6 and the survivor count (dose: 200.0 mg/kg/injection, schedule: Q04DX003 (ip), vehicle: Klucel (hydroxypropylcellulose) (HPC)) was 0 of 6.
For `CC1CCC2N(C1)CC1C3(O)CC45OC6(O)C(O)CCC4(C)C6CCC5C3(O)CC(O)C1(O)C2(C)O` (centres undefined), the survivor count [5] was 0 of 6.
`CC(C)(O)C(Cl)S(=O)c1ccccc1` (centres undefined) was tested, and the T/C (dose: 150.0 mg/kg/injection, schedule: Q03DX002 (ip), vehicle: saline with Tween-80) was 136 % of control.
In the case of `CC(C)(C)CC#N`, the survivor count [15] is reported as 0 of 4 and the survivor count (dose: 400.0 mg/kg/injection, schedule: Q01DX001 (ip), vehicle: saline) is reported as 0 of 4.
